Experimental data taken from patent publication US20050113456A1, “Method of decreasing fat deposits and body weight in mammals and birds” (priority 2003, published 2005).
Some entries share one result that the patent states for a list of compounds. At least one structure is not confirmed: it was looked up by name or label, or the drawing left a doubt.

Tested on: mice
Assay: Acute toxicity (LD50) iv in mice

Work on CC(C)(C)NC[C@@H](O)c1ccc(O)c(CO)c1 [S-salbutamol] yielded an LD50 of less than 60 mg/kg.
